The values that follow come from publication PMC7987339.

Chains of the proteins cited; added tags and fusions are not shown. Lines headed by an entry give the natural chain unless they say otherwise; changes in a name come on top.
UniProt P0A6X3: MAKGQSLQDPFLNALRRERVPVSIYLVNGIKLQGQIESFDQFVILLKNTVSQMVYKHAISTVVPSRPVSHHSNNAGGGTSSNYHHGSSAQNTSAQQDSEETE

The exact form of at least one protein or probe is not confirmed. At least one verdict rests on a figure or table, not on a statement of the authors.

The target in the series is Hfq (Escherichia coli) (UniProt P0A6X3). Description: EMSA. Particulars: 20 nM RNA, Kd determined but value not in the material; 1 mM DTT, 1 mM MgCl2, 20 mM KCl, 10 mM Na phosphate pH 8.0, 12.5 ug/mL yeast tRNA; 15 min at 37 C; native 5% PAGE in 1X TBE at 4 C; recombinant protein; label: 5'-32P (Kd), unlabelled in competition; probe letters rebuilt from the primers and the genome.

For “GGACACCGUCGCUUAAAGUGACGGCAUAAUAAUAAAAAAAUGAAAUUCCUCUUUGACGGGCCAAUAGCGAUAUUGGCCAUUUUUUU [ChiX sRNA]”, the binding result was “binds”. As for “GGGCGAUCAGGAAGACCCUCGCGGAGAACCUGAAAGCACGACAUUGCUCACAUUGCUUCCAGUAUUACUUAGCCAGCCGGGUGCUGGCUUUUUUUUU [RyhB sRNA]”, the binding result is reported as “binds”.
